Results deposited as PubChem BioAssay AID1259254 (NCATS, 2017).
Aim: 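Gene knock-downs that lead to re-replication, shown by excess G2 DNA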 (primary screen). System: human HCT116 colorectal cancer cells. Reagents: single siRNA against human genes. Timing: 3 days. Measured: 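Nuclei stained with Hoechst and imaged; cell-cycle phase assigned by DNA content; G2 share scaled per plate, non-targeting siRNA 0%, GMNN siRNA 100%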. Scale: G2 robust z-score: higher = more G2 cells, more excess DNA replication. Rule for the call: 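Active siRNAs have a G2 robust z of 5 or more median absolute deviations over the median, which in these data means about 38% or higher of GMNN control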.
The deposit covers about 59,000 reagents; below is an unselected part. About 1,550 of all reagents (2.6%) were called active. 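G2 share is only a proxy for re-replication; each gene was hit by three separate siRNAs, and active genes were retested.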 The numbers tell different reagents against one gene apart. Further read-outs or replicates are left out here. The record does not give: the amount of reagent.

no.	target gene	reagent no.	G2 robust z-score	Call
1	RASGRP3 (GeneID 25780)	1	0.128	inactive
2	RASGRP3 (GeneID 25780)	2	-0.266	inactive
3	RASGRP3 (GeneID 25780)	3	0.681	inactive
4	TEX50 (GeneID 730159)	1	-0.793	inactive
5	TEX50 (GeneID 730159)	2	0.0879	inactive
6	TEX50 (GeneID 730159)	3	3.07	inactive
7	RAE1 (GeneID 8480)	1	-0.8	inactive
8	RAE1 (GeneID 8480)	2	0.622	inactive
9	RAE1 (GeneID 8480)	3	1.17	inactive
10	ARNT2 (GeneID 9915)	1	-0.461	inactive
11	ARNT2 (GeneID 9915)	2	-0.988	inactive
12	ARNT2 (GeneID 9915)	3	-0.492	inactive
13	OR5A2 (GeneID 219981)	1	-0.597	inactive
14	OR5A2 (GeneID 219981)	2	-0.721	inactive
15	OR5A2 (GeneID 219981)	3	7.85	active
16	CALCOCO2 (GeneID 10241)	1	1.6	inactive
17	CALCOCO2 (GeneID 10241)	2	0.327	inactive
18	CALCOCO2 (GeneID 10241)	3	-0.364	inactive
19	MARVELD2 (GeneID 153562)	1	0.705	inactive
20	MARVELD2 (GeneID 153562)	2	0.492	inactive
21	MARVELD2 (GeneID 153562)	3	-0.4	inactive
22	SPATA20 (GeneID 64847)	1	0.0435	inactive
23	SPATA20 (GeneID 64847)	2	0.661	inactive
24	SPATA20 (GeneID 64847)	3	2.33	inactive
25	AS3MT (GeneID 57412)	1	-0.439	inactive
26	AS3MT (GeneID 57412)	2	0.542	inactive
27	AS3MT (GeneID 57412)	3	-1.13	inactive
28	NOP9 (GeneID 161424)	1	-0.318	inactive
29	NOP9 (GeneID 161424)	2	-0.0681	inactive
30	NOP9 (GeneID 161424)	3	-0.113	inactive

Look-ups from the entries so far.
For “Call”, RAE1 (GeneID 8480) #1 has inactive
TEX50 (GeneID 730159) #3, Call = inactive
